Some of the results follow.

Amino acid sequences for entries named in this document (tags omitted). A change or cut given only in a name is not applied to a line headed by its entry.
UniProt Q9H5N1: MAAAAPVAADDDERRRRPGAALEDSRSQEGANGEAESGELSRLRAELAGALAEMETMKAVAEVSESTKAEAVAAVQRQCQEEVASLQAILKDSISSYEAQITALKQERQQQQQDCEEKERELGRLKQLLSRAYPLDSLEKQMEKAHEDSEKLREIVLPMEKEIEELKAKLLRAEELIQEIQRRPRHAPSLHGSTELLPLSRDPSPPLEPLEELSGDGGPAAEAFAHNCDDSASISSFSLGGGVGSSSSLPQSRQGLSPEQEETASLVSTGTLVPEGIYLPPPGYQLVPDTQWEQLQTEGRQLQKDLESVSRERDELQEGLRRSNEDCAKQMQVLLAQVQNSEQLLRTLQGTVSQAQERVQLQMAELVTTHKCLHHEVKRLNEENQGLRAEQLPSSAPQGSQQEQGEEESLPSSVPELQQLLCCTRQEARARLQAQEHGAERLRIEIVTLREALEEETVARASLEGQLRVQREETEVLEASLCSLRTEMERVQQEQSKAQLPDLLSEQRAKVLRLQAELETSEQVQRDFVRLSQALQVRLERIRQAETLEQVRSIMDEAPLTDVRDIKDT
UniProt Q5JS54: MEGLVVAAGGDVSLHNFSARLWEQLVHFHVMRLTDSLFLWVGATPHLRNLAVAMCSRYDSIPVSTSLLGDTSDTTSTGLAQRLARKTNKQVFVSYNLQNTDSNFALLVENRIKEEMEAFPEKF
UniProt Q9BYM8: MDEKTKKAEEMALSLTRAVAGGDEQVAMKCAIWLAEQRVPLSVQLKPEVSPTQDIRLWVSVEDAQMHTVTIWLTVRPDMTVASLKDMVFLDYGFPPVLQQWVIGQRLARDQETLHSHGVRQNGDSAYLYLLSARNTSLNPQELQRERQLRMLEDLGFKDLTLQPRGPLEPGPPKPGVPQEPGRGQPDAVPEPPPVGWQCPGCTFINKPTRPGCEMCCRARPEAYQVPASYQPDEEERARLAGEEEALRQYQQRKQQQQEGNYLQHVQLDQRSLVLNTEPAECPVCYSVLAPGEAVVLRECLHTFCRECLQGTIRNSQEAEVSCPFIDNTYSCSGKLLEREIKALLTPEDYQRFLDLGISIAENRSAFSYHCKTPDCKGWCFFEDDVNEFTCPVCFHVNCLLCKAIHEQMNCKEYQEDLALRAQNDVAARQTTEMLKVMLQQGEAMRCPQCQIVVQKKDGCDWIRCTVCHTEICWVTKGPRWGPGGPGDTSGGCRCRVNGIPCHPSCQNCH
UniProt Q00577: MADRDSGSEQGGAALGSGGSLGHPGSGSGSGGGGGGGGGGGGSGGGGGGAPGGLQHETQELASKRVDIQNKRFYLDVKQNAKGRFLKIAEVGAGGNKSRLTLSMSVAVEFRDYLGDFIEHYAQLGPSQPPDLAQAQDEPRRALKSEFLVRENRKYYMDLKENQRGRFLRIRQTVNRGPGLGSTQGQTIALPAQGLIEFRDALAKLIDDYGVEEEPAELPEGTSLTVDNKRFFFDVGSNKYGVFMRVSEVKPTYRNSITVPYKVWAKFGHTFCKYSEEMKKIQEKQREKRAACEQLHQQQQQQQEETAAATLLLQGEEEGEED
UniProt Q96QR8: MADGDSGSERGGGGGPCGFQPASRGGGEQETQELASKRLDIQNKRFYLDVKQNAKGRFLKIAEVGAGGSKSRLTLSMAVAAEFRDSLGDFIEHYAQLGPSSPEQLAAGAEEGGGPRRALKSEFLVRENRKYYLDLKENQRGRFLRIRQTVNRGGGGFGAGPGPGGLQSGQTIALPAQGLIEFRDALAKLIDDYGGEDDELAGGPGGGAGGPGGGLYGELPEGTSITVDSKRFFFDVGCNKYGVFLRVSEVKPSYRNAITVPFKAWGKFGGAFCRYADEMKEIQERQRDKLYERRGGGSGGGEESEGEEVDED
UniProt Q15311: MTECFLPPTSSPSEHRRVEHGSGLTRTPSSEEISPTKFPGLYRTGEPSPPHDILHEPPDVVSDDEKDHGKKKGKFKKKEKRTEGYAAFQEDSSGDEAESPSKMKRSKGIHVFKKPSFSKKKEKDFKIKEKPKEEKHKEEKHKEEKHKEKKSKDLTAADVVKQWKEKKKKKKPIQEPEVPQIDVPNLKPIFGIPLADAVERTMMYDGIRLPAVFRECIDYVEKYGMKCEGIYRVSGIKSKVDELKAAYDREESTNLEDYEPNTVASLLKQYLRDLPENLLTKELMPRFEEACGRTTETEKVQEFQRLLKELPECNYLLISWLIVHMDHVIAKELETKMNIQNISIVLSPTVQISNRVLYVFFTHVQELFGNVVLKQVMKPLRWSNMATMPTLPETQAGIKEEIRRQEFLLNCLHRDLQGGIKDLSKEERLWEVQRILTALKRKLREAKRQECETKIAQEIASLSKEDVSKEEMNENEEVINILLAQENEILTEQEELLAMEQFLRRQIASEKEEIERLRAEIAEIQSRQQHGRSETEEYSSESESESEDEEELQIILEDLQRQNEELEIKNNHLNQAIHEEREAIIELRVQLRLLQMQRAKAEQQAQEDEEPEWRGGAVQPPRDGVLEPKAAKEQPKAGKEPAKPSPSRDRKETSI
UniProt O75832: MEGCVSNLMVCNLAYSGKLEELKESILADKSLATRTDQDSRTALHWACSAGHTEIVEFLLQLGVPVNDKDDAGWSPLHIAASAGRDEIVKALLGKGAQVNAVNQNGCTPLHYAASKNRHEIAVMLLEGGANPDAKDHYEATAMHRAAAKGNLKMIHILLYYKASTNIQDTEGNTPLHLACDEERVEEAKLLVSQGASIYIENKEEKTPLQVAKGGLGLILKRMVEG
UniProt Q15274: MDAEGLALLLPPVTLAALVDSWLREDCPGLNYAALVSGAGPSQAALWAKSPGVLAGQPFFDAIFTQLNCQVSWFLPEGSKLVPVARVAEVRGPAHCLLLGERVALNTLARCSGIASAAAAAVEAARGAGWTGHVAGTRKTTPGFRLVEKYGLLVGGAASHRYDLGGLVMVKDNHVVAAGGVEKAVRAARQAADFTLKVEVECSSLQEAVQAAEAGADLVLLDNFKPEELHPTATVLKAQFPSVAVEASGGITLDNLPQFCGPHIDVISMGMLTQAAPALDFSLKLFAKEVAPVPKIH
UniProt Q96I25: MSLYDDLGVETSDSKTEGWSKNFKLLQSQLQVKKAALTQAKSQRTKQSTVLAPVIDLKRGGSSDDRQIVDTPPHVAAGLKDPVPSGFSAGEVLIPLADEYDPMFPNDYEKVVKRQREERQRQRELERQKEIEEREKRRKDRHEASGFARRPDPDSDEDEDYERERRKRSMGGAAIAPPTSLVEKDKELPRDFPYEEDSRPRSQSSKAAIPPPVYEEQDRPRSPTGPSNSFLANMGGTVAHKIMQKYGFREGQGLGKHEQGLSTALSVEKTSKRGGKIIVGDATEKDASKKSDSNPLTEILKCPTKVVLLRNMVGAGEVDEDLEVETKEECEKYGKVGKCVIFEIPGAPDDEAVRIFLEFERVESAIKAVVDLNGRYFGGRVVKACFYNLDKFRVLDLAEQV
UniProt Q14997: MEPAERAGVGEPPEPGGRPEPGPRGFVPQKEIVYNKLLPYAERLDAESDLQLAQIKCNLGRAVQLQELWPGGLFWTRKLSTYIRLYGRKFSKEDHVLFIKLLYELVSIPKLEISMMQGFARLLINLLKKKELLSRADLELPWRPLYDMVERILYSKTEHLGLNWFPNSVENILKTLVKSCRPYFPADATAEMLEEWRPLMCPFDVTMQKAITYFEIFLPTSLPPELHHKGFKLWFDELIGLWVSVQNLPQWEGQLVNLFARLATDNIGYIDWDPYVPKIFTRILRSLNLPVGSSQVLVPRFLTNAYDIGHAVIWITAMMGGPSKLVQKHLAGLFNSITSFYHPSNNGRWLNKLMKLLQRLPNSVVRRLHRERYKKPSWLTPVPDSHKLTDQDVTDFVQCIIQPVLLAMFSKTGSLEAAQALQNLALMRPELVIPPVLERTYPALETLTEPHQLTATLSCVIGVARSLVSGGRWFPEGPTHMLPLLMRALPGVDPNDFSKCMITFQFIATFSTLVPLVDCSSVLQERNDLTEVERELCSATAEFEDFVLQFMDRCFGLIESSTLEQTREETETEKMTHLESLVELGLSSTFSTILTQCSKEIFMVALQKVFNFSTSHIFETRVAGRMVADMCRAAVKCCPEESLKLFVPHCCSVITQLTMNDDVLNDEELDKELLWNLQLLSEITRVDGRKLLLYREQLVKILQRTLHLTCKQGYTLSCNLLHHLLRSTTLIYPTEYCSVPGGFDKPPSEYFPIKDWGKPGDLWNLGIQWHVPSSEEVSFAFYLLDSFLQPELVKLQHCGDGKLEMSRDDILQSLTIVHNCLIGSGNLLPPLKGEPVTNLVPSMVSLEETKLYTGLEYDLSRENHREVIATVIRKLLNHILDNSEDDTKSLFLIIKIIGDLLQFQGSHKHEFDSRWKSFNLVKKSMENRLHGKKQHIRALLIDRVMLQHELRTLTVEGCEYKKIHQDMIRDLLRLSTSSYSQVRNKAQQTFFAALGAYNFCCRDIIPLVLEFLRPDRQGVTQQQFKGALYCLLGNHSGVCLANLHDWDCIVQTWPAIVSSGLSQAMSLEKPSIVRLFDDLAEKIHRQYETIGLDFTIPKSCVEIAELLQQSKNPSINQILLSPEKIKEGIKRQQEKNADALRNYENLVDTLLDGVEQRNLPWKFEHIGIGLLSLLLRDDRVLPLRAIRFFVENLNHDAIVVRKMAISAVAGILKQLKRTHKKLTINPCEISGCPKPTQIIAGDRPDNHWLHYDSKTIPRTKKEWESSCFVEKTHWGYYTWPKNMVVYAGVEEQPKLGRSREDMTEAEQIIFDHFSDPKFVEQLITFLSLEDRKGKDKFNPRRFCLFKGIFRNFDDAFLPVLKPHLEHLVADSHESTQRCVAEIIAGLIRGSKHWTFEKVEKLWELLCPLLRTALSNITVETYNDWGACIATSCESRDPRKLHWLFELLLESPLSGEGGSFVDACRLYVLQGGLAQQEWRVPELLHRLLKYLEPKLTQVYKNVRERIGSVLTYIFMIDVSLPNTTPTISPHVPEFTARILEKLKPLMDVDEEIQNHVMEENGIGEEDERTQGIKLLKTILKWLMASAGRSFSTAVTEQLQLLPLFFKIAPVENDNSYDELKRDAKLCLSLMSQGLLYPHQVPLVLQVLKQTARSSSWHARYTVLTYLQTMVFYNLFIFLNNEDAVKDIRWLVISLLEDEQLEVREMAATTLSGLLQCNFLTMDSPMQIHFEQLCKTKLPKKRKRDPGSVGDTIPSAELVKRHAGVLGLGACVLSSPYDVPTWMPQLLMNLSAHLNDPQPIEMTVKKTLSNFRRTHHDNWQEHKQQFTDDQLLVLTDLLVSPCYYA
UniProt P08575: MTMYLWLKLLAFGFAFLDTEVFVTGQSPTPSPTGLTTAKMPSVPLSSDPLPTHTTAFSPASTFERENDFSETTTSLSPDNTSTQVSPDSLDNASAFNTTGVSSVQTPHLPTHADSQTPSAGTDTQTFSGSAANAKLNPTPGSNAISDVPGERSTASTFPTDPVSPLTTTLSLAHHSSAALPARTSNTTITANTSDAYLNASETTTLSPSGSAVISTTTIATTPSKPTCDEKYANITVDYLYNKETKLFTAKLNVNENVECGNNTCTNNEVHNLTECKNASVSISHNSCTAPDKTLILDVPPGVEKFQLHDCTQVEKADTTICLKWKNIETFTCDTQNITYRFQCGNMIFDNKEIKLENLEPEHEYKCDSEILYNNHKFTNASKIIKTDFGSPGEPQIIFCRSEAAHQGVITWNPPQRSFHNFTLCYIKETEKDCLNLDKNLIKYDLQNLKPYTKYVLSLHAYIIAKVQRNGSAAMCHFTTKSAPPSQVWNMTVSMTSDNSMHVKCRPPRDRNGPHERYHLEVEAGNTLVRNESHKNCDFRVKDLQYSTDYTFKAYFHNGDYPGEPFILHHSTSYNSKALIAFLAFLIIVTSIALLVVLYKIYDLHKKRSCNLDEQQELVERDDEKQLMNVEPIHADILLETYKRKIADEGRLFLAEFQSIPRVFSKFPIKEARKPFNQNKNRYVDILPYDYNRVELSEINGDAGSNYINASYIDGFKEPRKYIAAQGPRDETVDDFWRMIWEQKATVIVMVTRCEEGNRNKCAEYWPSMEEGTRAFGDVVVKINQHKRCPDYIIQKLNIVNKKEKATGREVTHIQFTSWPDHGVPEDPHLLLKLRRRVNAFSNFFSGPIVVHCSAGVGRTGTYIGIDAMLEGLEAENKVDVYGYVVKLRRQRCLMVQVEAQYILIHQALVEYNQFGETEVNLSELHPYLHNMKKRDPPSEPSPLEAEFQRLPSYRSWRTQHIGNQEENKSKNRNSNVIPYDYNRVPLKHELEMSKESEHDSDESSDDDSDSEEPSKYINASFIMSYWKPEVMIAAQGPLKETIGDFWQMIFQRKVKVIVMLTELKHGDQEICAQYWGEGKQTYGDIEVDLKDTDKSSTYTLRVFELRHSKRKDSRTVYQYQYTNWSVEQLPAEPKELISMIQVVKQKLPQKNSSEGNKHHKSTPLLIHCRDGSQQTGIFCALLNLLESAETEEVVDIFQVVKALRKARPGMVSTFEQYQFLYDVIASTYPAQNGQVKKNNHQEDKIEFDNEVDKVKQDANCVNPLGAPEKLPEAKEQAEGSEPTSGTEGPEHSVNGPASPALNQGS

Compound in this test: COc1ccc(Cn2ccc3ccc(C(=O)NO)cc32)cc1
Briefly: dose-dependent thermal stabilisation call (2D-TPP, DLPTP, 10% FDR) (binary (1 = stabilised)); higher = stabilised by the compound. The settings on record: system: HL-60 intact cells; concentration range 0.04-10 µM.
Take PTBP1 (UniProt P26599): the “dose-dependent thermal stabilisation call” value was inactive: 0.

Regarding RABEP2 (UniProt Q9H5N1), the “dose-dependent thermal stabilisation call” value is inactive: 0.

As to RAP1GDS1 (UniProt P52306), the “dose-dependent thermal stabilisation call” value was inactive: 0.

In the case of PSMC5 (UniProt P62195), the “dose-dependent thermal stabilisation call” value is inactive: 0.

As for PSMB8 (UniProt P28062), the “dose-dependent thermal stabilisation call” value is inactive: 0.

As to RALY (UniProt Q9UKM9), the “dose-dependent thermal stabilisation call” value was inactive: 0.

Regarding PSMA1 (UniProt P25786), the “dose-dependent thermal stabilisation call” value was inactive: 0.

PSMG4 (UniProt Q5JS54): the “dose-dependent thermal stabilisation call” value was inactive: 0.

In the case of PTP4A2 (UniProt Q12974), the “dose-dependent thermal stabilisation call” value was inactive: 0.

Take RBM6 (UniProt P78332): the “dose-dependent thermal stabilisation call” value is inactive: 0.

As for RAB22A (UniProt Q9UL26), the “dose-dependent thermal stabilisation call” value was inactive: 0.

Consider PUS3 (UniProt Q9BZE2), for which the “dose-dependent thermal stabilisation call” value was inactive: 0.

PTPN7 (UniProt P35236): the “dose-dependent thermal stabilisation call” value is inactive: 0.

For PSAP (UniProt P07602), the “dose-dependent thermal stabilisation call” value was inactive: 0.

As to PTPN11 (UniProt Q06124), the “dose-dependent thermal stabilisation call” value is inactive: 0.

For RBCK1 (UniProt Q9BYM8), the “dose-dependent thermal stabilisation call” value is inactive: 0.

For the target RBM8A (UniProt Q9Y5S9), the “dose-dependent thermal stabilisation call” value is inactive: 0.

Turning to RBKS (UniProt Q9H477), the “dose-dependent thermal stabilisation call” value is inactive: 0.

With PUS10 (UniProt Q3MIT2), the “dose-dependent thermal stabilisation call” value is inactive: 0.

As for PUM2 (UniProt Q8TB72), the “dose-dependent thermal stabilisation call” value was inactive: 0.

PVR (UniProt P15151): the “dose-dependent thermal stabilisation call” value was inactive: 0.

Consider PRPF8 (UniProt Q6P2Q9), for which the “dose-dependent thermal stabilisation call” value is inactive: 0.

On to QTRT1 (UniProt Q9BXR0), for which the “dose-dependent thermal stabilisation call” value is active: 1.

For PURA (UniProt Q00577), the “dose-dependent thermal stabilisation call” value was inactive: 0.

As for RAB28 (UniProt P51157), the “dose-dependent thermal stabilisation call” value is inactive: 0.

As to PRR3 (UniProt P79522), the “dose-dependent thermal stabilisation call” value was inactive: 0.

RBM15 (UniProt Q96T37): the “dose-dependent thermal stabilisation call” value is inactive: 0.

On to RAP1B (UniProt P61224), for which the “dose-dependent thermal stabilisation call” value was inactive: 0.

For the target PRRC1 (UniProt Q96M27), the “dose-dependent thermal stabilisation call” value was inactive: 0.

On to PURB (UniProt Q96QR8), for which the “dose-dependent thermal stabilisation call” value is inactive: 0.

RALBP1 (UniProt Q15311): the “dose-dependent thermal stabilisation call” value is inactive: 0.

As to PSMD10 (UniProt O75832), the “dose-dependent thermal stabilisation call” value was inactive: 0.

As for QPRT (UniProt Q15274), the “dose-dependent thermal stabilisation call” value is inactive: 0.

As for RBM17 (UniProt Q96I25), the “dose-dependent thermal stabilisation call” value was inactive: 0.

As to PSME4 (UniProt Q14997), the “dose-dependent thermal stabilisation call” value is inactive: 0.

On to PTPRC (UniProt P08575), for which the “dose-dependent thermal stabilisation call” value is inactive: 0.

Regarding RAB10 (UniProt P61026), the “dose-dependent thermal stabilisation call” value was inactive: 0.
